Reference: patent US20240150301A1, “METHODS OF MODULATING ANDROGEN RECEPTOR CONDENSATES” (ETERN BIOPHARMA (SHANGHAI) CO., LTD., priority 2021, published 2024)

System: LNCaP cells
Assay: Cell proliferation assay (CellTiter-Glo), LNCaP
Format: cell-based
Details: Homo sapiens, 96 h, read-out: LNCaP IC50 AR-positive (cell proliferation)
Experimental: To evaluate the effect of exemplary compounds on proliferation of AR/AR-V7-dependent prostate cancer cells, cell viability assay was performed in LNCaP (AR-positive), 22Rv1 (AR-positive; AR-V7 positive), VCaP (AR-positive; AR-V7 positive), and DU145 (AR-negative) cells, respectively.
LNCaP cells were seeded in charcoal stripped FBS/phenol red-free RPMI medium in 96-well plates for 24 h before pretreating for 1 h with test compounds prior to addition of 0.2 nM DHT for 4 days. 22Rv1 or VCaP cells were cultured in charcoal stripped FBS/phenol red-free RPMI medium for 24 h before addition of test compounds for 4 days. DU145 cells were seeded in complete medium for 24 h before addition of test compounds for 4 days. Cell proliferation was measured with CellTiter-Glo® Luminescent Cell Viability Assay (Promega). In LNCaP cells, DHT-dependent cell growth is calculated by measuring the difference between vehicle control (DMSO) cells treated with or without 0.2 nM DHT. The IC50 values were determined using the four parameter fit via GraphPad Prism graphing software.

SMILES: CNC(=O)c1ccc(N2C(=S)N(c3ccc(C#N)c(C(F)(F)F)c3)C(=O)C2(C)C)cc1F [Enzalutamide, reference compound]
- IC50: 230 nM
